# Test results from patent US6506881B1, “Anti-HMFG antibodies and processes for their production” (Celltech R&D Limited, priority 1991, dated 2003).
# Amino acid sequences for entries named in this document (tags omitted). Residues count along the entry.
# UniProt P15941, residues 24-1255: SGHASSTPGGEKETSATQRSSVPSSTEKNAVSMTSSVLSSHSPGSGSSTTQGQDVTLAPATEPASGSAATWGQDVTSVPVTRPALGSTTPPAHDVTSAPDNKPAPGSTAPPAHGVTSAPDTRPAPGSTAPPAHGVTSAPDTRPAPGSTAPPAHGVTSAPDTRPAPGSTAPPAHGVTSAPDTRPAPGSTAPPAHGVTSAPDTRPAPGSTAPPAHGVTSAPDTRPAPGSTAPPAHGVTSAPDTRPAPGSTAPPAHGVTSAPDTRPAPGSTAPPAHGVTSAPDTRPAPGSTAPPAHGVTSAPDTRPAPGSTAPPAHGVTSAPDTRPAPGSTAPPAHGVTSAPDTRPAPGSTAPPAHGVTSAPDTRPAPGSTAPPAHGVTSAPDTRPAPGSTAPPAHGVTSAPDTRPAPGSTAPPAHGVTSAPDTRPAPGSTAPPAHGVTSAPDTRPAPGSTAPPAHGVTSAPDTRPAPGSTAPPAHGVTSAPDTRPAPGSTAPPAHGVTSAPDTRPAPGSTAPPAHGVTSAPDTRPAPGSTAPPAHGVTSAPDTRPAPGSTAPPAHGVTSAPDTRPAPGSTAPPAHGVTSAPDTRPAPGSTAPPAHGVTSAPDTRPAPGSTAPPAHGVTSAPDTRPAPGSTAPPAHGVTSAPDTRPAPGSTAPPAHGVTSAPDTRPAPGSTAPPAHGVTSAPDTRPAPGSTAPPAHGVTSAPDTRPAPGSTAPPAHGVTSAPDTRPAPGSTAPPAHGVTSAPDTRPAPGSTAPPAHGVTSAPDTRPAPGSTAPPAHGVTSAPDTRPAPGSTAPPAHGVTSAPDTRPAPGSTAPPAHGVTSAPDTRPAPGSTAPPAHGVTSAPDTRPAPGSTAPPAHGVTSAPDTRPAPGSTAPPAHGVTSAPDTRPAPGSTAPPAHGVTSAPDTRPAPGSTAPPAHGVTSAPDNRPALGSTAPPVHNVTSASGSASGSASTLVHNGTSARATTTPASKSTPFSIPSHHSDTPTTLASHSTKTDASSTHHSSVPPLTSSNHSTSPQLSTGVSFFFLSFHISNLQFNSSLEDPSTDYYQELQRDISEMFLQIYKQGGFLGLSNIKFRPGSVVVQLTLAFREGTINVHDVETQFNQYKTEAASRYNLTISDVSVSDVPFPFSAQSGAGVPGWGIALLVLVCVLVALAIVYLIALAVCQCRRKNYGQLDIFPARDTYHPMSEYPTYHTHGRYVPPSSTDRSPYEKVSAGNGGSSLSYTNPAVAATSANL
# Results are given in words; binding and its absence hold for the method and conditions named. Some entries that bind do so weakly or less than the wild type.
# B1: gL1gH2IgG2 CTMO1 (antibody, V domains shown)
# VH: QIQLVQSGAEVKKPGSSVKVSCKASGYTFTDYYINWMRQAPGQGLEWIGWIDPGSGNTKYNEKFKGRATLTVDTSTNTAYMELSSLRSEDTAFYFCAREKTTYYYAMDYWGQGTLVTVSS
# VL: DIQMTQSPSTLSASVGDRVTITCRSSKSLLHSNGDTFLYWFQQKPGKAPKLLMYRMSNLASGVPSRFSGSGSGTEFTLTISSLQPDDFATYYCMQHLEYPFTFGQGTKVEVKR
# B2: gL1gH2IgG4P CTMO1 (antibody, V domains shown)
# VH: B1 VH
# VL: B1 VL
# Target: antigen recognised by CTMO1 (believed to be the PEM of HMFG) on MCF-7 or MX-1 breast carcinoma cells (human) (UniProt P15941)
# Assay: 125I-labelled antibody on MX-1 or MCF-7 cells, 2 ug/million cells
row,Binder,binding
1,B1,binds
2,B2,binds
